# In the supplement of paper PMC3334620:
# Whole data set: some 33,000 sequences, median “E-score (-0.5 to 0.5)” near -8e-05, cut for the highest 2% near 0.23. The list shows a part of the results.
# Biological target: T1, Nrg2 (UniProt P38082)
# T1 sequence: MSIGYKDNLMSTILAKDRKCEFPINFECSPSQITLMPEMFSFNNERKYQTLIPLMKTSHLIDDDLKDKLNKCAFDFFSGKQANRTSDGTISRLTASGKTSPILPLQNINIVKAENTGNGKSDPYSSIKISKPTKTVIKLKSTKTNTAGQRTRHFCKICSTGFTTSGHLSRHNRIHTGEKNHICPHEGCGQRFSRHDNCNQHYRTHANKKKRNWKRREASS
# Assay: PBM E-score (8-mer binding enrichment) (E-score (-0.5 to 0.5)); higher = stronger / more preferred TF binding
# Conditions: protein concentration: 100 nM; construct: GST-full length
# In short: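 Universal all-10-mer Agilent arrays, double-stranded by primer extension on fresh or once-stripped slides, were probed with about 100-200 nM GST-tagged yeast transcription factors made by PURExpress. Fluorescent anti-GST detected bound protein, and masliner normalised the scans. E-scores from the Universal PBM Analysis Suite were given to each ungapped eight-base word pooled with its reverse complement.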
row,Sequence,PBM E-score
1,ATATCCCA,0.134
2,AGAAGTAG,-0.0895
3,ACTCAAGG,0.112
4,GTACAAAA,0.0892
5,TACCCCGA,0.0811
6,CAACGTTC,-0.0822
7,ATTTCACC,0.00723
8,AGGTTGGA,0.0737
9,CTTTCCTA,-0.13
10,CTGTTGAA,0.223
11,ATCGTGTG,0.0839
12,CCGTTGAC,-0.109
13,ACCGTCTC,0.0423
14,ACACCTAC,0.0641
15,ATCAAGGA,0.0312
16,ACCGACCA,0.0622
17,AAAGATCA,0.166
18,CCTTTCCC,-0.187
19,ATGTAAAA,0.0496
20,ACGATTGG,-0.046
21,CTGGTGTA,-0.173
22,CCATCTCG,0.109
23,ATGCCTTC,-0.247
24,AGGGAGCG,0.0384
25,AGCGGTTA,-0.17

row,Sequence,PBM E-score
1,CATACCGG,-0.0888
2,ATATTCAT,0.0301
3,AAAATCAG,-0.0302
4,CTCTTATC,0.151
5,CTTATCAA,0.21
6,ATGGATTG,0.109
7,CAAGGTAA,0.0476
8,AGTACTAC,0.118
9,GCTCTACA,-0.0536
10,GGCTGGCA,-0.276
11,AGAGAAGC,0.0414
12,AACCATCA,-0.0599
13,ATTCATAC,0.238
14,ATGCAAAT,0.129
15,ATGAGTGC,0.0317
16,CTAAAAAA,-0.0191
17,ACAACAGG,-0.00056
18,GATTTTAA,0.079
19,AGTGCGAG,-0.0426
20,GACTCCTC,-0.0626
21,AGAGGCCA,-0.107
22,CCGGGATC,0.109
23,TCGTCTAA,-0.116
24,ATCGTGGG,0.0739
25,AGCCCGAT,-0.0777

row,Sequence,PBM E-score
1,TGTCCCAA,-0.121
2,CGTATCTC,-0.0538
3,ATAGTCTG,0.0549
4,AGCGGTAA,-0.153
5,ACTATACG,-0.0712
6,AGTTAGCA,0.0695
7,ATAGGCAC,-0.0718
8,ACAATAGG,0.00717
9,ACCAGAGG,-0.102
10,AATGCATA,0.0781
11,AATAAAGA,0.0604
12,CACAGCCC,-0.206
13,GTGAAGGA,-0.00784
14,CAAACCGA,-0.103
15,ATGAACAC,-0.0153
16,ACGAAAAT,0.151
17,GCAAAGAA,0.157
18,AAAAATTT,0.0458
19,AGGGCAAG,0.114
20,ATACGATG,0.0788
21,AACAGGGG,0.105
22,GCTTCGCA,-0.149
23,GAGCGAGC,0.099
24,ACGTATGG,-0.0224
25,ACTGTCTA,-0.0293

row,Sequence,PBM E-score
1,ACTTCAAG,-0.0567
2,ACTCTCAG,-0.0774
3,GACAAGCC,0.13
4,CGTCGACA,0.0529
5,ACCCTGCT,0.0589
6,CATACAAG,0.0742
7,CCGGAAAC,-0.0132
8,GGTCAGAA,0.0137
9,GGAATTAA,0.153
10,ATGTGTTG,0.204
11,CTCCGAAC,-0.132
12,CCATGAGC,-0.047
13,AACCCGCA,0.0835
14,AGGCTTGG,-0.105
15,AGAAAGTC,0.037
16,ATAAATCG,0.101
17,GAGTCGAC,0.141
18,ACATAGTC,0.055
19,GGTTGCTA,0.0559
20,ACCTGTGC,-0.0445
21,GTCTTCGA,-0.0435
22,CGAGTGAG,0.153
23,AAGAGTGA,-0.0283
24,TCTCCAGA,-0.179
25,CTACCAAA,-0.113

row,Sequence,PBM E-score
1,AGAACACT,0.138
2,GCGTCATA,0.146
3,GACAGGGC,0.0492
4,ATAGCGAG,-0.0712
5,GACTGGGA,-0.0261
6,AGGTCAAA,-0.0745
7,CTCGTCGC,-0.033
8,ACTCAGCA,0.0463
9,CTCCCAAC,-0.0556
10,TAAAGGGA,0.0314
11,AGATACGG,-0.184
12,AAGTCCGA,-0.0535
13,GATATAGC,-0.0454
14,CAAGCCCA,-0.277
15,CAATCGAA,0.258
16,TAGAGGCA,0.0443
17,GTTTCTCA,-0.0499
18,AACTGGTG,-0.0605
19,CACCATCA,-0.00951
20,AAGCTGGA,-0.185
21,GGGATGTA,0.027
22,AAGAGACC,-0.0175
23,ATCCAATG,-0.099
24,CTCATGGA,-0.102
25,GGGGAAAC,0.00088

row,Sequence,PBM E-score
1,ACGACCGA,-0.037
2,GTATTGAC,-0.0758
3,GACACTCC,-0.0182
4,CCAGGAGC,-0.287
5,AAGAGCCA,0.185
6,GACACATC,-0.00378
7,CCTTTTAA,-0.0347
8,CTGCGATA,0.02
9,CCCTGCCC,-0.1
10,GCTTTGTA,0.143
11,ATTGCATG,0.15
12,CAAGCCGC,-0.15
13,ACTTTGAG,-0.0289
14,AACGATCC,-0.227
15,AGTAAATG,0.186
16,ACGGTACA,0.0512
17,ATCCCGTC,-0.0147
18,CAGTCCTC,-0.163
19,AAGGGGGT,-0.298
20,AATGGTCG,-0.163
21,TCATGAGA,-0.024
22,CATGACGA,0.0731
23,CAAAGGAG,0.0625
24,AAACGTGT,-0.217
25,ATAAAGAG,-0.0489

# Part of the list above, with bars between the fields.
row | Sequence | PBM E-score
12 | CCATGAGC | -0.047
13 | AACCCGCA | 0.0835
14 | AGGCTTGG | -0.105
15 | AGAAAGTC | 0.037
16 | ATAAATCG | 0.101
17 | GAGTCGAC | 0.141
18 | ACATAGTC | 0.055
19 | GGTTGCTA | 0.0559
20 | ACCTGTGC | -0.0445
21 | GTCTTCGA | -0.0435
22 | CGAGTGAG | 0.153
23 | AAGAGTGA | -0.0283
24 | TCTCCAGA | -0.179
25 | CTACCAAA | -0.113
1 | AGAACACT | 0.138
2 | GCGTCATA | 0.146
3 | GACAGGGC | 0.0492
4 | ATAGCGAG | -0.0712
5 | GACTGGGA | -0.0261
6 | AGGTCAAA | -0.0745
7 | CTCGTCGC | -0.033
8 | ACTCAGCA | 0.0463
9 | CTCCCAAC | -0.0556
10 | TAAAGGGA | 0.0314
11 | AGATACGG | -0.184
12 | AAGTCCGA | -0.0535
13 | GATATAGC | -0.0454
14 | CAAGCCCA | -0.277
15 | CAATCGAA | 0.258
16 | TAGAGGCA | 0.0443
17 | GTTTCTCA | -0.0499
18 | AACTGGTG | -0.0605
19 | CACCATCA | -0.00951
20 | AAGCTGGA | -0.185
21 | GGGATGTA | 0.027
22 | AAGAGACC | -0.0175
23 | ATCCAATG | -0.099
24 | CTCATGGA | -0.102
25 | GGGGAAAC | 0.00088
1 | ACGACCGA | -0.037
2 | GTATTGAC | -0.0758
3 | GACACTCC | -0.0182
4 | CCAGGAGC | -0.287
5 | AAGAGCCA | 0.185
6 | GACACATC | -0.00378
7 | CCTTTTAA | -0.0347
8 | CTGCGATA | 0.02

# (cont.)

row,Sequence,PBM E-score
1,GACGGCCA,-0.0494
2,GCGCCGTA,0.164
3,CACTGATG,-0.11
4,ATAAGTCA,0.177
5,TCTGAGAA,0.0851
6,ACTTATAA,0.0623
7,CAAGCCCG,-0.0516
8,ATCGCGAG,0.175
9,AGTAGCAG,0.146
10,GATTGTAC,-0.124
11,CCAATACA,0.116
12,GAAGTTAC,0.137
13,ATCATTCG,0.19
14,TACCAGCA,0.0995
15,CACCATAA,-0.0296
16,GGGAGCAC,-0.271
17,GTATTTTA,-0.125
18,GTCTAGGA,-0.141
19,AGGTGTGG,-0.0308
20,ACCTGTGA,-0.0357
21,AGATGGCG,0.128
22,TCCCAACA,0.0892
23,CGCTCAAG,-0.0971
24,CCTCAACA,0.0779
25,ACCCAGTC,0.0175

row,Sequence,PBM E-score
1,CGAAGCAA,0.0108
2,CAGTTCCA,0.0341
3,CACACTGC,-0.0211
4,AGTCCTAT,-0.129
5,GGACTTAA,-0.0982
6,AAAGTTCG,0.127
7,CGAACCAA,0.012
8,CCCGCGAG,0.118
9,AAAATCAC,0.155
10,AGTCAAGA,-0.0439
11,AAGGTGAA,0.073
12,GTAGAAAC,-0.0556
13,AACCGTAG,-0.116
14,AAAATTTT,-0.0254
15,ATTTGCTA,0.0846
16,CGAAAAAA,0.0964
17,ACGCTGCG,-0.0363
18,CTTACCTC,-0.214
19,ATCCCAGC,-0.158
20,TCAGAGGA,-0.0702
21,CGCTGCAG,0.0432
22,CAAGGCCG,-0.0785
23,AAGTAGTC,0.0558
24,GATGTTAC,-0.0708
25,GGCATAGA,0.0809

row,Sequence,PBM E-score
1,AGCCACTC,-0.109
2,CCGTTTCC,-0.11
3,CGTCCCTC,-0.0916
4,AAGTGGCT,0.0021
5,GCAGACTA,-0.0747
6,CCGAAAGC,-0.292
7,TAACGTGA,-0.232
8,GGGATGGA,0.091
9,CATGTTCG,-0.0368
10,GCATATCA,0.256
11,GCCTTTCC,-0.201
12,GGAAACCC,0.146
13,AAACCAAT,0.165
14,GCGTTAAA,-0.0934
15,CAACATGA,0.0641
16,CAGCTAAA,0.0375
17,GGGGAGAC,-0.171
18,AACGTATT,0.0259
19,AGCAGTAT,0.141
